From the supplement of paper PMC5949888
Most values lie at the floor of the assay. Slopes are relative: functional sequences can read slightly below zero.

system: Saccharomyces cerevisiae PS128 hsf1 delta, HSF1(1-493) fusion; assay: growth estimate (transactivation domain function in HSF1 fusion, heat-shock survival) (a.u. (slope of normalised read count over time)); higher = stronger growth at 37°C, i.e. more transactivation activity; details: library: random library
Protocol: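 Random 60-nt DNA library encoding peptides of up to 20 aa, fused to the C-terminus of yeast HSF1 residues 1-493 (C-terminal TAD deleted) and expressed from the native HSF1 promoter on a CEN plasmid in hsf1-deleted S. cerevisiae PS128. Cells were selected at 37°C on -trp 5-FOA plates for 0, 2, 4, 6 and 8 days and amplicons were sequenced. Growth estimate is the slope of a robust linear fit of total-sum-normalised read counts (normalised to the first time point) over time, using at least 2 replicates. Sequences are classed functional (TAD activity) above a threshold of -0.13, set from stop-codon control sequences.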

Substance	growth estimate
KLWTKAYLG	< -0.25
NVTYGSARRGLRHGWWKPQG	< -0.25
WKYFFVYLQNISGYSGLKTQ	-0.246
ENDVSYFVATSYRLSMMA	-0.199
PMQR	< -0.25
QTRYSVIASNTLPNGS	< -0.25
SDARMCPRQDLRKN	< -0.25
IPSTGSGTSNTRPMT	< -0.25
RQTLGRTITNLRLRSIA	< -0.25
GGCMQENLCL	< -0.25
YLLDAGSEWSGAVDRPPEMY	< -0.25
SLNPGLEENWGAVNVRHV	< -0.25
FLQRI	< -0.25
RGYQLFHPHLPYPC	< -0.25
TRGGSIDSH	< -0.25
GNAYGVYAHGWRREFSRVCQ	< -0.25
FWVTRIKGKVYVIKGGTVYA	< -0.25
GFVAPQVVQGS	< -0.25
FTRHHMRSMGSAAVARHASG	< -0.25
AALSTI	< -0.25
CSCDLATSAASGKFRSRHAK	< -0.25
AILKLVTSRHGGPVPPLTVQ	< -0.25
QCACLNVCRRLVNSNRRHR	< -0.25
SVLVIRGSSMVLVLRVLRLV	< -0.25
LASFEVLYASCPRRTDIRGS	< -0.25
SNTLVFKRYVS	< -0.25

Substance	growth estimate
GRVTLVLRTIWTLHESLIAS	< -0.25
QSWVY	< -0.25
NFGR	< -0.25
CRAEGY	< -0.25
SLTRETSPCFWGNGVTVSLV	< -0.25
WTHTKTTHYRLHPLGLDCTE	< -0.25
ILSGTKRYGVVGVCRNELAV	< -0.25
NFAIAHS	< -0.25
LRPQGYVYHCAYNFRGLNGL	< -0.25
QGGNLDAV	< -0.25
AGMFAASAFNSGHFFVGQGL	< -0.25
SWCVLETFFI	< -0.25
FLLRR	< -0.25
WVCIAAHHHDQVAGAHWCTS	< -0.25
LGKDLPRVTAHGTAAPDT	< -0.25
SETSAPLHRRYLPRIKDIPL	< -0.25
TGMIFMVFVKHCINMSDRGP	-0.248
ERYQRSAPPRHVQTGVPGVG	< -0.25
GRISPSYQSLTLKT	< -0.25
SSVRSPSVSDWILKVRDHLV	< -0.25
DRGWSLVAIA	< -0.25
RPLV	< -0.25
RSPQRRMKFAGSGV	< -0.25
LVVG	< -0.25
YSRAH	< -0.25
EGLAMGGLVTTQPVSPHILQ	< -0.25

Substance	growth estimate
WGVQCPGTGGGSWHFQMRQT	< -0.25
LLLPSYLFS	< -0.25
MFRANRVANAQSSPYRTPP	< -0.25
EDCKGR	< -0.25
LVSRGRSDNSMGLRRLRLY	< -0.25
FLTPRHGTLAYGVTLGG	< -0.25
RPASD	< -0.25
EDKART	< -0.25
LLALWSDMSEI	< -0.25
SVSQPHEVLSWYPRGFRTVL	< -0.25
DLACAHWCGGSRKLVQW	< -0.25
NHSTY	-0.25
RRCSDSPHAGARACRRRPYE	< -0.25
SVCVNKGIAIFRDVTSSDRT	-0.248
RLANLNLGALTSLRPGLSLA	< -0.25
VGKIGGSRGSKYTSDTGLV	< -0.25
PLRMRFSC	< -0.25
KRAYFI	0.366
IMGLTAGSNLSECKGRVSPT	< -0.25
GLRTDLREGSPASATDGSGN	< -0.25
SSS	< -0.25
GGRDVETMKTSEQAHVRPR	< -0.25
PSKGKPLPLGSGVVSRTGRV	< -0.25
ARPIHKGLGVSVHFIKPKKV	< -0.25
YAEGTGRLDGRANSYNVVYQ	< -0.25
VGIGFHLAWRAATLLVLM	< -0.25

Substance	growth estimate
FITR	< -0.25
YLHSPVRLRKVNLRWRSTVE	< -0.25
APPPS	< -0.25
RHAGLMSSHMSKIMVLKVAI	< -0.25
SSWLLDQVSTLRGVGIFVVV	< -0.25
VTRVSLVSSLLTGCYSIPGK	< -0.25
VRKWYVSKDFPSVVENYFLR	< -0.25
SLEGNAASSTVSSGSRGSTW	< -0.25
LWAWQRSRDYPH	< -0.25
IIRVLQLRKGLTTGLGEFTT	< -0.25
TSCYRGCGGVFRRLLNVLGQ	< -0.25
RQRL	< -0.25
DEPDV	< -0.25
VDAL	< -0.25
ISESWSVKERVPRSMGLMVM	< -0.25
AVKRCSWRPR	< -0.25
GEMGINILRRLLGHRMRTNT	< -0.25
GVNTYGPATAIIRIS	< -0.25
TYSDCYGCPLHVH	< -0.25
GEDPAN	< -0.25
HPNSHHCLVS	< -0.25
LVFCT	< -0.25
RAHSVREPATRGRDQFVQ	< -0.25
DCGCSYLTV	< -0.25
VLLAGD	< -0.25
LARPIGVPQGESAAARIESR	< -0.25

Substance	growth estimate
RSTRGATSQQVRSRHSLSVV	< -0.25
QASEIEYGGLRG	< -0.25
RYL	< -0.25
STGFGHDMVLVNKVPKGLHT	< -0.25
WVQ	< -0.25
TEGWNSSGFST	-0.246
GLDFSRRGLPSS	< -0.25
RRDGTRLAGT	< -0.25
SIKDGDELFCLARHSTSVLS	< -0.25
VIENLLLSG	< -0.25
VTPPPPNVQRDRAGAVIMVS	< -0.25
LTDVILIHNLQCPRVRHHEP	< -0.25
CFRDEVLCL	< -0.25
LEPRDAGYNLPHLNTPVGFH	< -0.25
LGCSER	< -0.25
MGLLRGE	< -0.25
ISWWIACDR	< -0.25
RSGRLEVLKSYSPRTPVQRV	< -0.25
PLWSSST	< -0.25
WVVA	< -0.25
PWANRFEIARTSVLNHPMRF	< -0.25
CKQDVWIR	< -0.25
IDKCGL	< -0.25
ILV	< -0.25
SQGGDSLADVRPVPTSRAPV	< -0.25
SLIRQSRSCLYAYLRAEGRA	< -0.25

Substance	growth estimate
WRVLVIGLGWSGLR	< -0.25
GATFLKTFSGLQLLTTSCGV	< -0.25
RPRCNGNKRATALRD	< -0.25
VKESCGFAPFSRKNG	< -0.25
SSLLLTASTAVKLSLRVLEV	< -0.25
DSMDRGSVHTTLCFGCAMKS	-0.245
CSQCLIRHGPRN	< -0.25
TIRVSHPFTGAQRSGCWHYR	< -0.25
PDKAEIVAHCRWVHASST	-0.179
GVPSRP	< -0.25
PCE	-0.241
DPYIWRADRGCDHEDHFRFN	< -0.25
LPAR	< -0.25
IRVRYEYARMVASELRFSRP	< -0.25
RRSVNPWASWASSQGQTREG	< -0.25
LSPQMGARAQQRDAPAAYVC	< -0.25
ATHTRRMAHRPGDDETYAS	< -0.25
KQKWALYACRWAQALSVCTH	< -0.25
GTPAGFPEMRRLKARLVG	< -0.25
CVLT	< -0.25
YWTCHLLRRWALNSLPWALS	< -0.25
CPGRQVCDGGNPPRGARVQS	< -0.25
LPAL	< -0.25

44 neighbouring entries already listed, for reference:
Substance	growth estimate
WVQ	< -0.25
TEGWNSSGFST	-0.246
GLDFSRRGLPSS	< -0.25
RRDGTRLAGT	< -0.25
SIKDGDELFCLARHSTSVLS	< -0.25
VIENLLLSG	< -0.25
VTPPPPNVQRDRAGAVIMVS	< -0.25
LTDVILIHNLQCPRVRHHEP	< -0.25
CFRDEVLCL	< -0.25
LEPRDAGYNLPHLNTPVGFH	< -0.25
LGCSER	< -0.25
MGLLRGE	< -0.25
ISWWIACDR	< -0.25
RSGRLEVLKSYSPRTPVQRV	< -0.25
PLWSSST	< -0.25
WVVA	< -0.25
PWANRFEIARTSVLNHPMRF	< -0.25
CKQDVWIR	< -0.25
IDKCGL	< -0.25
ILV	< -0.25
SQGGDSLADVRPVPTSRAPV	< -0.25
SLIRQSRSCLYAYLRAEGRA	< -0.25
WRVLVIGLGWSGLR	< -0.25
GATFLKTFSGLQLLTTSCGV	< -0.25
RPRCNGNKRATALRD	< -0.25
VKESCGFAPFSRKNG	< -0.25
SSLLLTASTAVKLSLRVLEV	< -0.25
DSMDRGSVHTTLCFGCAMKS	-0.245
CSQCLIRHGPRN	< -0.25
TIRVSHPFTGAQRSGCWHYR	< -0.25
PDKAEIVAHCRWVHASST	-0.179
GVPSRP	< -0.25
PCE	-0.241
DPYIWRADRGCDHEDHFRFN	< -0.25
LPAR	< -0.25
IRVRYEYARMVASELRFSRP	< -0.25
RRSVNPWASWASSQGQTREG	< -0.25
LSPQMGARAQQRDAPAAYVC	< -0.25
ATHTRRMAHRPGDDETYAS	< -0.25
KQKWALYACRWAQALSVCTH	< -0.25
GTPAGFPEMRRLKARLVG	< -0.25
CVLT	< -0.25
YWTCHLLRRWALNSLPWALS	< -0.25
CPGRQVCDGGNPPRGARVQS	< -0.25
